Measurements taken from PubChem BioAssay AID493014 (National Center for Advancing Translational Sciences (NCATS), 2011).
Values joined by “and” are separate entries in the source; they are usually repeats but may differ in a detail not shown here. Equal entries are not always repeated. Some of the results follow. These are further read-outs of the screen, such as a control signal, another cell line or another target. No call is given for them. Compounds called inactive in the main read-out are mostly missing here. The note in brackets gives the kind of curve behind each potency; many fits are weak.

Assay: qHTS Assay to Find Inhibitors of Chronic Active B-Cell Receptor Signaling
Conditions: ABC-DLBCL IkBa-CBG/CBR reporter, luminescence ratio (green luciferase fused to IkBa over red control in TMD8 lymphoma cells), 4 h
Outline: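 Compounds up to 46 uM were incubated four hours with TMD8 cells whose green CBG68 luciferase is fused to IkappaBalpha; red CBR luminescence normalised the signal, and concentration-effect curves were fitted to fusion, red and ratio data.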

[1] = measured here: CBR red luminescence, cell number
[2] = measured here: IkBa-CBG green luminescence

| SMILES | AC50 [1] | AC50 [2] |
| --- | --- | --- |
| O=C(COC(=O)c1ccccc1C(=O)c1ccccc1)Nc1cccc([N+](=O)[O-])c1 | 13 µM [falling, partial curve, poor fit] |  |
| CC(NC(=O)Nc1cccc(Cl)c1)C(c1cccs1)N1CCCC1 (stereo not given) | 6.51 µM [rising, single point] |  |
| Cc1cccc(OCC(=O)Nc2sc3c(c2C#N)CCC3)c1 | 6.51 µM [rising, partial curve, poor fit] |  |
| CC1(c2ccc(Cl)cc2)NC(=O)N(CC(=O)N2CCc3ccccc3C2)C1=O (stereo not given) | 32.6 µM [falling, single point] |  |
| CNC(=S)NCCc1ccc(OC)c(OC)c1 | 3.16 µM [rising, partial curve, poor fit] |  |
| CC(C)CCNC(=O)C(=O)NCC1OCCCN1S(=O)(=O)c1cccs1 (stereo not given) | 10 µM [rising, partial curve] |  |
| CC(=O)Nc1cccc(NC(=O)c2cccc3cccnc23)c1 | 1.41 µM [rising, partial curve, poor fit] |  |
| COc1ccccc1/C=C/C=N/NC(=O)c1cc(-c2ccc(C)o2)[nH]n1 | 10 µM [falling, partial curve, poor fit] |  |
| O=C(CSc1n[nH]c(-c2cccnc2)n1)Nc1ccc(Cl)cc1 | 17.8 µM [falling, single point] | 35.5 µM [rising, partial curve, poor fit] |
| COc1cc(-c2nc(C(=O)NC3CCCCC3)cc3c2[nH]c2ccccc23)cc(OC)c1OC | 8.91 µM [rising, partial curve] | 11.2 µM [falling, partial curve, poor fit] |
| COc1ccc(NC(=O)CCN2CCCC(C)C2)cc1 (stereo not given) | 29.1 µM [rising, partial curve, poor fit] |  |
| CC(=O)c1c(N2CCOCC2)nc(=S)n(-c2ccccc2)c1C | 2.31 µM [rising, partial curve, poor fit] |  |
| O=C(COc1ccc(C(=O)c2ccc(F)cc2)cc1)NCc1ccc(F)cc1 | 6.51 µM [rising, single point] | 3.26 µM [falling, full curve] |
| O=C(CCNS(=O)(=O)c1ccc(Br)cc1)N1CCN(c2ccccc2O)CC1 | 23.1 µM [rising, partial curve, poor fit] |  |
| COc1ccccc1/C=C/C=N/n1c(-c2ccccc2)n[nH]c1=S | 1.12 µM [falling, full curve, poor fit] |  |
| COCC(=O)Nc1ccc(C(C)C)cc1 | 9.2 µM [rising, partial curve, poor fit] |  |
| O=C(Nc1cccc(NC(=O)c2ccccc2[N+](=O)[O-])n1)c1ccccc1[N+](=O)[O-] | 25.1 µM [falling, single point] |  |
| CCOc1cc(Br)c(C=O)cc1OCC | 7.94 µM [rising, partial curve] | 7.08 µM [falling, full curve] |
| Cc1nnc(Oc2ccccc2F)c2ccccc12 | 35.5 µM [rising, single point] |  |
| Cc1cc(NC(=S)Nc2ccccc2)ccc1Br | 11.2 µM [rising, partial curve] |  |
| COc1ccc(Cl)cc1Nc1nc(-c2sc(NC(=O)c3ccco3)nc2C)cs1 | 2.82 µM [falling, full curve] |  |

| SMILES | AC50 [1] | AC50 [2] |
| --- | --- | --- |
| Oc1cc(-c2ccc(N3CCCCC3)nc2)cc2cccnc12 | 32.6 µM [falling, single point] and 5.8 µM [rising, partial curve, poor fit] |  |
| CC(=O)[C@@H]1[C@@H](C(=O)c2ccc(F)cc2)[C@]2(C(=O)Nc3ccccc32)[C@H]2C=Cc3cc(F)ccc3N12 | 35.5 µM [falling, single point] |  |
| COCCCNC(=O)/C(C#N)=C/c1ccc(F)cc1 | 28.2 µM [falling, single point] |  |
| COc1ccc(C(=O)COC(=O)c2ccc(-n3cnnn3)cc2)c(OC)c1 | 23.1 µM [falling, partial curve, poor fit] |  |
| COc1ccc(CNC(=O)CNC(=O)N2CC(=O)Nc3ccccc32)cc1 | 28.2 µM [rising, single point] |  |
| COc1ccc(Cl)cc1C(=O)NNC(=O)c1cccnc1 | 9.2 µM [falling, partial curve] |  |
| O=C(Nc1ccc2c(c1)OCO2)c1c(F)c(F)c(F)c(F)c1F | 16.4 µM [falling, single point] |  |
| NC(=O)COC(=O)/C=C/c1ccc2ccccc2n1 | 25.1 µM [falling, single point] | 11.2 µM [rising, partial curve, poor fit] |
| CC12CC(c3ccccc3O1)N(C(=O)c1ccc(Br)o1)C(=O)N2c1ccccc1 (stereo not given) | 5.8 µM [falling, single point] |  |
| CCCC(=O)NC(c1ccccc1Cl)c1ccc2cccnc2c1O (stereo not given) | 4.47 µM [falling, partial curve, poor fit] |  |
| Cc1ccc(C(NC(=O)N2CC(C)OC(C)C2)C(Cl)Cl)cc1F (stereo not given) | 1.3 µM [falling, full curve, poor fit] |  |
| CCOc1cc(S(=O)(=O)N2CCOCC2)ccc1F | 29.1 µM [rising, single point] |  |
| O=C(NCc1ccccc1)c1ccc(S(=O)(=O)N2CCCc3ccccc32)cc1 | 3.55 µM [rising, single point] |  |
| CC(C)CC1NC(=O)c2ccccc2-n2c1nc1cc(F)ccc1c2=O (stereo not given) | 18.4 µM [rising, single point] |  |
| CCN(CC)C(=O)CSc1nc2ccccc2c(=O)n1Cc1ccco1 | 0.794 µM [falling, full curve, poor fit] |  |
| Cc1ccc(NC(=O)Cn2c(-c3cncs3)nc3ccccc32)cc1Br | 0.562 µM [rising, partial curve, poor fit] |  |
| C/C(=C\C(=O)c1ccccc1)NNC(=O)c1ccc(Cl)cc1 | 12.6 µM [falling, partial curve, poor fit] |  |
| CC(C)NC(=O)NC(=O)CSc1nnc(COc2ccccc2F)n1C(C)C1CC2CCC1C2 (stereo not given) | 20 µM [falling, single point] |  |
| CCCc1nccn1S(=O)(=O)c1cc(Br)ccc1OC | 6.31 µM [rising, single point] |  |
| COc1ccc(C)cc1S(=O)(=O)N1CCN(S(=O)(=O)c2cc(C)ccc2OC)C(C)C1 (stereo not given) | 20.6 µM [rising, single point] |  |
| COc1ccc(-n2ncc3c(NCC(C)C)ncnc32)cc1 | 0.517 µM [rising, full curve] |  |

Taken from the results shown for reference:

| SMILES | AC50 [1] | AC50 [2] |
| --- | --- | --- |
| COc1ccc(C(=O)COC(=O)c2ccc(-n3cnnn3)cc2)c(OC)c1 | 23.1 µM [falling, partial curve, poor fit] |  |
| COc1ccc(CNC(=O)CNC(=O)N2CC(=O)Nc3ccccc32)cc1 | 28.2 µM [rising, single point] |  |

More records.

| SMILES | AC50 [1] | AC50 [2] |
| --- | --- | --- |
| O=C(NCCc1cccc(Cl)c1)c1ccc(Cl)c([N+](=O)[O-])c1 |  | 20.6 µM [rising, partial curve, poor fit] |
| COc1ccc(NC(=S)NC(=O)c2csnn2)cc1 | 0.794 µM [falling, full curve] |  |
| CCN1CCN(CCCNC(=O)C2CCCN(c3nc4c(C)cc(C)cc4s3)C2)CC1 (stereo not given) | 22.4 µM [falling, single point] |  |
| COc1ccc(/C=C/C(=O)c2ccc(Cl)cc2)c(OC)c1 | 35.5 µM [falling, single point] |  |
| O=C(NCc1ccc(F)cc1)c1cc2sccc2n1Cc1ccc(F)cc1 | 11.6 µM [rising, partial curve, poor fit] |  |
| CCOC(=O)C(=NC1CCCCC1)NNc1cccc(C(F)(F)F)c1 | 11.6 µM [rising, partial curve] |  |
| Clc1cnc(N/N=C/c2ccco2)c(Cl)c1 | 18.4 µM [falling, partial curve] | 20.6 µM [falling, single point] |
| O=C(NCc1ccc(F)cc1)c1ccc(S(=O)(=O)Nc2cccc(C(F)(F)F)c2)cc1 | 23.1 µM [falling, single point] |  |
| CCC(CO)Oc1cc(NC(=O)c2cccc3ccccc23)c2ncn(C(C)C)c2c1 (stereo not given) | 32.6 µM [falling, single point] |  |
| COc1ccc(OCCNC(=O)/C=C/c2ccccc2)cc1 | 12.6 µM [rising, partial curve] |  |
| CS(=O)(=O)c1ccc(Cl)c(NC(=O)COC(=O)CNC(=O)c2ccccc2)c1 | 31.6 µM [rising, single point] |  |
| CC(C)(C)c1ccc(OCC(=O)Nc2ccc3c4c(cccc24)C(=O)NC3=O)cc1 | 3.16 µM [rising, partial curve] | 6.31 µM [falling, single point] |
| Cc1nc(C(=O)NCCCO)cc2c1[nH]c1ccccc12 | 17.8 µM [falling, single point] |  |
| CCOC(=O)CSc1nc(C)c2cccc(C)c2n1 | 3.55 µM [rising, single point] | 15.8 µM [falling, partial curve] |
| CC(=O)c1ccc(N2CCN(C(=O)c3noc4c3CSc3ccccc3-4)CC2)cc1 | 20 µM [falling, single point] |  |
| CN(CC(=O)NC(=O)NC1CCCCC1)CC(=O)Nc1ccc(OC(F)(F)F)cc1 | 9.2 µM [falling, partial curve, poor fit] |  |
| Cc1ccc(-c2nc3cc(C)ccc3o2)cc1 | 32.6 µM [falling, single point] |  |
| CC(/C=C/c1ccc(N(C)C)cc1)=N\N=C(/N)SC1CC(=O)N(c2ccc(C(=O)O)cc2)C1=O (stereo not given) | 0.58 µM [falling, full curve, poor fit] |  |
| Nc1cc2ccncc2c2ccccc12 | 1.26 µM [falling, full curve, poor fit] |  |
| COc1ccc(-c2nnc(Nc3ccc(CC(N)=O)cc3)c3ccccc23)cc1 | 18.4 µM [falling, partial curve] |  |
